Results on one sequence are retold here after article PMC9279154 (Nature, 2022).

Data set [1] relates to Dcr-2 WT + Loqs-PD. The experiment in a line: EMSA. Conditions: 0.2 uM dsRNA, Loqs-PD helps Dcr-2 bind dsRNA; 5'-monophosphate on both strands; with or without ATP and Mg2+; recombinant protein. For orientation: In EMSA bound probe runs differently from free probe, usually more slowly.
Data set [2] concerns Dcr-2 WT + Loqs-PD. In words: size exclusion chromatography. Conditions: dimer; 5'-monophosphate on both strands; recombinant protein. A general note: In gel filtration, larger molecules generally elute earlier.

The exact form of at least one protein or probe is not confirmed. At least one verdict rests on a figure or table, not on a statement of the authors.

In the case of “GAGACUUGGGCAAUGUGACUGCUGAUCAGCAGUCACAUUGCCCAAGUCUCUU / GAGACUUGGGCAAUGUGACUGCUGAUCAGCAGUCACAUUGCCCAAGUCUCUU [50 bp palindromic dsRNA]”, the binding result in data set [1] and in data set [2] was “binds” throughout.
